Measured values: publication PMC8384158
No constants are given. Whether binding was seen depends on the method and setting. In cells and extracts the contact can be indirect. Some binding calls cover weakened binding; strength is not graded here.

How the values were obtained:
[1] = target: T1, Bag-1 (endogenous) (human (endogenous in MCF-7, MCF-12A and breast tissue)) (UniProt Q99933); test: co-IP; untransfected MCF-7 and MCF-12A cells; 250 μg extract with monoclonal α-Bag-1 on Dynabeads Protein G overnight at 4°C; uncoupled beads as control; immunoblot
T1 sequence: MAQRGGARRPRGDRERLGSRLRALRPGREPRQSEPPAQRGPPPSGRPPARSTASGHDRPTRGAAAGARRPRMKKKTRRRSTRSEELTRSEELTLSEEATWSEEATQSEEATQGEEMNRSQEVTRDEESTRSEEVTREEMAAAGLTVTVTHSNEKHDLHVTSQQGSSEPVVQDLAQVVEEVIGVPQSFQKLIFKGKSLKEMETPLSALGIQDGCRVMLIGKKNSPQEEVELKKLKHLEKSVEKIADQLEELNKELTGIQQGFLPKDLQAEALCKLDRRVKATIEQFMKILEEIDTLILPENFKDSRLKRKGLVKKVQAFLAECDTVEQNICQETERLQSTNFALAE

TAP–Bag-1L (human) = target: T2, TAP–Bag-1L (human) (UniProt Q99933); test: pull-down; MCF-7 cells transfected with TAP–Bag-1 isoform; 500 μg lysate on IgG Sepharose overnight at 4°C, released with AcTEV protease; bound fraction immunoblotted
T2 sequence: T1 sequence

TAP–Bag-1S (human) = target: T3, TAP–Bag-1S (human) (UniProt Q99933); test: as above
T3 sequence: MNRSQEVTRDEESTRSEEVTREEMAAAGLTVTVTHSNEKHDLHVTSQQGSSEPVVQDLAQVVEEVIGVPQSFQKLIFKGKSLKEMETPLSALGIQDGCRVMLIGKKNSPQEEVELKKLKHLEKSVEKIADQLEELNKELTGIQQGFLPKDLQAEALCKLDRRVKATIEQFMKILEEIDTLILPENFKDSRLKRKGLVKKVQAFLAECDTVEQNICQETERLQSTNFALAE

binding [1]: binds | binding (TAP–Bag-1L (human)): binds | binding (TAP–Bag-1S (human)): binds
B1: Calnexin (protein, UniProt P27824 21-592)
chain: HDGHDDDVIDIEDDLDDVIEEVEDSKPDTTAPPSSPKVTYKAPVPTGEVYFADSFDRGTLSGWILSKAKKDDTDDEIAKYDGKWEVEEMKESKLPGDKGLVLMSRAKHHAISAKLNKPFLFDTKPLIVQYEVNFQNGIECGGAYVKLLSKTPELNLDQFHDKTPYTIMFGPDKCGEDYKLHFIFRHKNPKTGIYEEKHAKRPDADLKTYFTDKKTHLYTLILNPDNSFEILVDQSVVNSGNLLNDMTPPVNPSREIEDPEDRKPEDWDERPKIPDPEAVKPDDWDEDAPAKIPDEEATKPEGWLDDEPEYVPDPDAEKPEDWDEDMDGEWEAPQIANPRCESAPGCGVWQRPVIDNPNYKGKWKPPMIDNPSYQGIWKPRKIPNPDFFEDLEPFRMTPFSAIGLELWSMTSDIFFDNFIICADRRIVDDWANDGWGLKKAADGAAEPGVVGQMIEAAEERPWLWVVYILTVALPVFLVILFCCSGKKQTSGMEYKKTDAPQPDVKEEEEEKEEEKDKGDEEEEGEEKLEEKQKSDAEEDGGTVSQEEEDRKPKAEEDEILNRSPRNRKPRRE
